The labels stand for the following.
B1: FAM120A (protein, UniProt Q9NZB2 1-1118)
chain: MGVQGFQDYIEKHCPSAVVPVELQKLARGSLVGGGRQRPPQTPLRLLVDADNCLHRLYGGFYTDWVSGGQWNHMLGYLAALAKACFGGNIELFVFFNGALEKARLHEWVKRQGNERQTAQQIVSHVQNKGTPPPKVWFLPPVCMAHCIRLALIRFHVKVAQSIEDHHQEVIGFCRENGFHGLVAYDSDYALCNIPYYFSAHALKLSRNGKSLTTSQYLMHEVAKQLDLNPNRFPIFAALLGNHILPDEDLASFHWSLLGPEHPLASLKVRAHQLVLPPCDVVIKAVADYVRNIQDTSDLDAIAKDVFQHSQSRTDDKVIRFKRAIGYYSATSKPMSFHPPHYLAARPGPFGMPGMVPPHVPPQMLNIPQTSLQAKPVAPQVPSPGGAPGQGPYPYSLSEPAPLTLDTSGKNLTEQNSYSNIPHEGKHTPLYERSSPINPAQSGSPNHVDSAYFPGSSTSSSSDNDEGSGGATNHISGNKIGWEKTGSHSEPQARGDPGDQTKAEGSSTASSGSQLAEGKGSQMGTVQPIPCLLSMPTRNHMDITTPPLPPVAPEVLRVAEHRHKKGLMYPYIFHVLTKGEIKIAVSIEDEANKDLPPAALLYRPVRQYVYGVLFSLAESRKKTERLAFRKNRLPPEFSPVIIKEWAAYKGKSPQTPELVEALAFREWTCPNLKRLWLGKAVEDKNRRMRAFLACMRSDTPAMLNPANVPTHLMVLCCVLRYMVQWPGARILRRQELDAFLAQALSPKLYEPDQLQELKIENLDPRGIQLSALFMSGVDMALFANDACGQPIPWEHCCPWMYFDGKLFQSKLLKASREKTPLIDLCDGQADQAAKVEKMRQSVLEGLSFSRQSHTLPFPPPPALPFYPASAYPRHFGPVPPSQGRGRGFAGVCGFGGPYGETVATGPYRAFRVAAASGHCGAFSGSDSSRTSKSQGGVQPIPSQGGKLEIAGTVVGHWAGSRRGRGGRGPFPLQVVSVGGPARGRPRGVISTPVIRTFGRGGRYYGRGYKNQAAIQGRPPYAASAEEVAKELKSKSGESKSSAMSSDGSLAENGVMAEEKPAPQMNGSTGDARAPSHSESALNNDSKTCNTNPHLNALSTDSACRREAALEAAVLNKEE
B2: COPR5 (protein, UniProt Q9NQ92 1-184)
chain: MDLQAAGAQAQGAAEPSRGPPLPSARGAPPSPEAGFATADHSSQERETEKAMDRLARGTQSIPNDSPARGEGTHSEEEGFAMDEEDSDGELNTWELSEGTNCPPKEQPGDLFNEDWDSELKADQGNPYDADDIQESISQELKPWVCCAPQGDMIYDPSWHHPPPLIPYYSKMVFETGQFDDAED

Amino acid sequences for entries named in this document (tags omitted).
UniProt O14744: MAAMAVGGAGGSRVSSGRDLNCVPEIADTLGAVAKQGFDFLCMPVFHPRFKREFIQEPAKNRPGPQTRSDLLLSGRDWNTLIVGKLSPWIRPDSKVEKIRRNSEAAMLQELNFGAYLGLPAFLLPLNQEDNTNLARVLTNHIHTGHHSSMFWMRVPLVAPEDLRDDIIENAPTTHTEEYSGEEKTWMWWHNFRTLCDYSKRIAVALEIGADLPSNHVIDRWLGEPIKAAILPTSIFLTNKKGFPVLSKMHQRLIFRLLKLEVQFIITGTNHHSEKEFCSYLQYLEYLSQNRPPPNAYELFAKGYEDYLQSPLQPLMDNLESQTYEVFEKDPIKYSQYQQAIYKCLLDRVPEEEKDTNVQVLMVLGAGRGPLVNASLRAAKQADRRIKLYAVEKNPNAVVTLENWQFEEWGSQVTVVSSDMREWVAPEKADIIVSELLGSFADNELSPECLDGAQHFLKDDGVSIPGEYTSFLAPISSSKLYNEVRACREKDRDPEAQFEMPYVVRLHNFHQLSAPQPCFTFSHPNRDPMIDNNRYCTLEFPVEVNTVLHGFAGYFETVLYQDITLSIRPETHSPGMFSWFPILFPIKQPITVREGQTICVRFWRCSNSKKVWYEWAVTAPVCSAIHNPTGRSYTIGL
UniProt Q96AE4: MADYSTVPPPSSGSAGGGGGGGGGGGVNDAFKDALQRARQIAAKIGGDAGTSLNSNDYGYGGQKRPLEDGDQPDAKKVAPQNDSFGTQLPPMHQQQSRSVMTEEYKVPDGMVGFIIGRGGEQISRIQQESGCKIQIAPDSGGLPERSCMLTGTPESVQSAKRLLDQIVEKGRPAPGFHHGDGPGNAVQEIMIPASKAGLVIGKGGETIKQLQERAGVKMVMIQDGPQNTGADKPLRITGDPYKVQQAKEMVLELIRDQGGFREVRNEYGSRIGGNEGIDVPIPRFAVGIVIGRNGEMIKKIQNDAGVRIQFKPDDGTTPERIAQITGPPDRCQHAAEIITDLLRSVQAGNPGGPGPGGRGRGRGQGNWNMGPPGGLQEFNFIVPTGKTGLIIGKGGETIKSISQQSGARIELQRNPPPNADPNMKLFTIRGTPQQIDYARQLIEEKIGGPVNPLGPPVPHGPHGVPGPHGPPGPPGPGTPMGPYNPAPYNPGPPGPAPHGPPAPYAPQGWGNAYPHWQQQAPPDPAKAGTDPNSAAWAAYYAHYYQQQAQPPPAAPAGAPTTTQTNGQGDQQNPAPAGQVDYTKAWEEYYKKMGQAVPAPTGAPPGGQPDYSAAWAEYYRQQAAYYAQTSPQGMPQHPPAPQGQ
UniProt P51116: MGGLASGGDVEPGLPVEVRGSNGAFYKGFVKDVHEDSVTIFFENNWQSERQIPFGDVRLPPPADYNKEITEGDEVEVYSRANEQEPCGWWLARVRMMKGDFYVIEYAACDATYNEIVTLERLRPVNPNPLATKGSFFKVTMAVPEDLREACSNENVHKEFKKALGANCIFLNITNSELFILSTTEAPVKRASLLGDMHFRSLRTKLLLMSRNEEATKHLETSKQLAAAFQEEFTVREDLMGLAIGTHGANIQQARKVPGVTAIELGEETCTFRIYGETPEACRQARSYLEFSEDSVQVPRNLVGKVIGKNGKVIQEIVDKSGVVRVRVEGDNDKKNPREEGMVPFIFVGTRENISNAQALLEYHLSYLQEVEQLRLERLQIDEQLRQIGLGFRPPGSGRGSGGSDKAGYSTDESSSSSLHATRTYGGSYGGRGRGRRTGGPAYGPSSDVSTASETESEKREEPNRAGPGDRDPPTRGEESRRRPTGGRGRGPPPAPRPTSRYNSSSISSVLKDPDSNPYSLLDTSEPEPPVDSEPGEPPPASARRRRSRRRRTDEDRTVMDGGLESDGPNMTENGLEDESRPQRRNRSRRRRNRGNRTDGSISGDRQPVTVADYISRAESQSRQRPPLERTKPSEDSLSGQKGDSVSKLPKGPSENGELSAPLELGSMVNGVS
UniProt Q13283: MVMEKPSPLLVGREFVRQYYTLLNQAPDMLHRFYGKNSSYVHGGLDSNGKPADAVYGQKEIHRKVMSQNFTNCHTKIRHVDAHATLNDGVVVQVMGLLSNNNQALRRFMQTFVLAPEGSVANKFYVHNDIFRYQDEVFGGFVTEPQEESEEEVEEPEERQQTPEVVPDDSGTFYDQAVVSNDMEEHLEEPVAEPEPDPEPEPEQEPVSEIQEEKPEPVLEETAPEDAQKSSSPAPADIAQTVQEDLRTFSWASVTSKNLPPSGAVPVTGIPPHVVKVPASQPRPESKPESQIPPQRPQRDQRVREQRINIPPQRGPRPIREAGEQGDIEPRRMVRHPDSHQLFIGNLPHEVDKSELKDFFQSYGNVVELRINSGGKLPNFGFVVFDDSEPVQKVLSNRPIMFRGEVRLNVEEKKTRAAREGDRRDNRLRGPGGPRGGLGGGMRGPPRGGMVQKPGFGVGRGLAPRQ
UniProt P35637: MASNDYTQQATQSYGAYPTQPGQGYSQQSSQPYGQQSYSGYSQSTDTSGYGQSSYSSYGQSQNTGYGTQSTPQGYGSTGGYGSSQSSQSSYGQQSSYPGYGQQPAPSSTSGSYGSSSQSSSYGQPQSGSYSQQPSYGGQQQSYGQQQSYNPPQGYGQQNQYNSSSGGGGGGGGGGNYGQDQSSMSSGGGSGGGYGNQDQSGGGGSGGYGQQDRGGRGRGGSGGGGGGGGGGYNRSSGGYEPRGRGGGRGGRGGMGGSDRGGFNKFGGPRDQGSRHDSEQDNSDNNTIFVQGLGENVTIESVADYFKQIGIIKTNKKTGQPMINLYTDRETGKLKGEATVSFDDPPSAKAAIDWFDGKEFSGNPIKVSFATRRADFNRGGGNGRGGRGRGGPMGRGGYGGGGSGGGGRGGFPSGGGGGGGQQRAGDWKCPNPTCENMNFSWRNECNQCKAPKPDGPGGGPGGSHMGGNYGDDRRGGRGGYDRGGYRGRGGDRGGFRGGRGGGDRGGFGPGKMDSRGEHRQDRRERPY

No constants are given. Whether binding was seen depends on the method and setting. In cells and extracts the contact can be indirect. These calls come from enrichment with a bait or labelling near it, and not all partners need be listed.

The test addresses protein arginine methyltransferase 5 (PRMT5) (human (endogenous in MCF-7)) (UniProt O14744). The experiment in a line: affinity purification with mass spectrometry; MCF-7_RBKO lysates (NP-40 lysis buffer: 20 mM Tris-HCl pH 7.6, 150 mM NaCl, 0.1% NP-40, 1 mM EDTA) immunoprecipitated with a PRMT5 antibody or rabbit IgG control, overnight 4°C, protein-G Dyna beads; MS; enrichment log2FC ≥0.5 and FDR <0.05.
With FUBP1 (from UniProt Q96AE4 1-644), the binding entry is “binds”.
Turning to FXR2 (from UniProt P51116 1-673), the binding result is “binds”.
For the molecule G3BP1 (from UniProt Q13283 1-466), the binding entry is given as “binds”.
The same measure for “fused in sarcoma (FUS) (from UniProt P35637 1-526)”: “binds”; for B1: “binds”.
Then B2, with “binds”.

These data come from PMC10371097.
